No constants are given. Whether binding was seen depends on the method and setting. In cells and extracts the contact can be indirect. Some entries that bind do so weakly or less than the wild type. Tags and fused reporters may be left off the sequences shown.

The results in this text go back to article PMC3708844 (2013).

Assay [1] has as its target T1, GST-SHI1 fusion protein (Arabidopsis thaliana) (UniProt Q8W4B1).
T1 sequence: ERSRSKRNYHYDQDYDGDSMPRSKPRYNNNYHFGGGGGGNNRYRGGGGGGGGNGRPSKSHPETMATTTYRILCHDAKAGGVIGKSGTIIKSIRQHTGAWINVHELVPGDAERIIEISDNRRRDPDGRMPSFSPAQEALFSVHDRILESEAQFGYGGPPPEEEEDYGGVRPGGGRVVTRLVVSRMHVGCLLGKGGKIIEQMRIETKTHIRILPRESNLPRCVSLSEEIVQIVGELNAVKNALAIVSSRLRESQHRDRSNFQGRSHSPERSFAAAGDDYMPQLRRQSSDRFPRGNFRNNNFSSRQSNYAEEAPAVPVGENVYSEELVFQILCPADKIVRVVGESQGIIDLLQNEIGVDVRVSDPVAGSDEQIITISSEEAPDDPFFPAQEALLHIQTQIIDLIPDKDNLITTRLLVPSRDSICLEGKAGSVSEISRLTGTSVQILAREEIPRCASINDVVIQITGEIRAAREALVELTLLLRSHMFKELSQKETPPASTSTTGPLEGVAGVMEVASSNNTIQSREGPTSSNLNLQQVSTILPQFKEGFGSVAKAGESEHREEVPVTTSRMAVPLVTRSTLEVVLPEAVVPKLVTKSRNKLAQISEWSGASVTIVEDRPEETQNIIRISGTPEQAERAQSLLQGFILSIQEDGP
Briefly: pull-down; GST-SHI1 immobilised on GST Bind Resin, incubated with 35S-labelled in vitro translated HIS-cFRY2 for 30 min at room temperature in 20 mM Tris-HCl pH 7.2, 10 mM MgCl2, 2 mM DTT; washed with PBS; autoradiography; only the target purified.

In assay [2] the target is T2, SHI1 fused with the N-terminal portion of the luciferase (Arabidopsis thaliana) (UniProt Q8W4B1).
T2 sequence: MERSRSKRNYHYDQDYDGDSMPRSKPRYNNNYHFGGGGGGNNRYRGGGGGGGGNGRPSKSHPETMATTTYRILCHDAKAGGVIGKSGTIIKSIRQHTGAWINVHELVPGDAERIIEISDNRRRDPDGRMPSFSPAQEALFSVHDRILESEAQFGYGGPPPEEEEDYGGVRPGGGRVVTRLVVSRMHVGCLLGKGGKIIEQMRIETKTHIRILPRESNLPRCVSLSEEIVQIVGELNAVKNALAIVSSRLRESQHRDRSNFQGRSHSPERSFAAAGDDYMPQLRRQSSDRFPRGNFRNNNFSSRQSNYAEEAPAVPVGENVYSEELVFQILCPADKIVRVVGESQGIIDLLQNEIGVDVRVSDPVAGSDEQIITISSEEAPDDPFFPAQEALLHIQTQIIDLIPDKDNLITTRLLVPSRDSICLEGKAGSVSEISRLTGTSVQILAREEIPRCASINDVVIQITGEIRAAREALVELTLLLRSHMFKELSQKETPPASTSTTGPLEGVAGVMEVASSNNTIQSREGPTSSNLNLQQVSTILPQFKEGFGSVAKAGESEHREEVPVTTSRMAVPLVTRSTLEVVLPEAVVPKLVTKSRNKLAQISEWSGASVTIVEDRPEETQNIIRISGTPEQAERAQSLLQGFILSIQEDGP
Briefly: split reporter; split luciferase (Renilla reniformis) complementation, fusion proteins co-expressed in Arabidopsis protoplasts; luciferase imaging in 96-well plate.

Assay [3] concerns the target T3, SHI1-nYFP (Arabidopsis thaliana) (UniProt Q8W4B1).
T3 sequence: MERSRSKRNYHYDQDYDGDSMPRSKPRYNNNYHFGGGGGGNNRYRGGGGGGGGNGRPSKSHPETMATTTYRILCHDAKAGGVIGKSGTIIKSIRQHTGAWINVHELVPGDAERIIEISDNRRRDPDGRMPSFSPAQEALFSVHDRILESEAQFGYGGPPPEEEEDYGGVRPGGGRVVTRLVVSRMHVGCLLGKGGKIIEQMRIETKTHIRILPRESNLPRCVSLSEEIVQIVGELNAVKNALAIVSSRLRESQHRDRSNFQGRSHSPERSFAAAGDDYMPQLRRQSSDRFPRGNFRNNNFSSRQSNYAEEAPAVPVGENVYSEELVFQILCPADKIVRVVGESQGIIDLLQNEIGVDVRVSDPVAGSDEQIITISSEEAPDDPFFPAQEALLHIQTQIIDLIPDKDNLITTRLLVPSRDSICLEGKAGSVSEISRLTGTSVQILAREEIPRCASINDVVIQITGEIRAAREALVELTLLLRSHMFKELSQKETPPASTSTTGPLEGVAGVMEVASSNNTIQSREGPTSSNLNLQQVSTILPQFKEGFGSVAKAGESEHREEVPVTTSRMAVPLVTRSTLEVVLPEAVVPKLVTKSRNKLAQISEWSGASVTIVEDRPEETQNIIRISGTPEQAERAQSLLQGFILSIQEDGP
In words: split reporter; split YFP complementation in Arabidopsis protoplasts; fluorescence microscopy.

B1: HIS-cFRY2 (FRY2/CPL1 666-855, including the first dsRNA binding domain) (domain or fragment, UniProt Q5YDB6 666-855)
chain: MLHENRRPPKESLRRDEQLRSNNNLPDSHPFYGEDASWNQSSSRNSDLDFLPERSVSATETSADVLHGIAIKCGAKVEYKPSLVSSTDLRFSVEAWLSNQKIGEGIGKSRREALHKAAEASIQNLADGYMRANGDPGPSHRDATPFTNENISMGNANALNNQPFARDETALPVSSRPTDPRLEGSMRHTG
modifications: 35S-methionine labelled
B1: the binding result in assay [1] is on record as “binds”.

B2: FRY2/CPL1 fused with the C-terminal part of the luciferase (protein, UniProt Q5YDB6 1-967)
chain: MYSNNRVEVFHGDGRLGELEIYPSRELNQQQDDVMKQRKKKQREVMELAKMGIRISHFSQSGERCPPLAILTTISSCGLCFKLEASPSPAQESLSLFYSSCLRDNKTAVMLLGGEELHLVAMYSENIKNDRPCFWAFSVAPGIYDSCLVMLNLRCLGIVFDLDETLVVANTMRSFEDKIDGFQRRINNEMDPQRLAVIVAEMKRYQDDKNLLKQYIESDQVVENGEVIKVQSEIVPALSDNHQPLVRPLIRLQEKNIILTRINPMIRDTSVLVRMRPSWEELRSYLTAKGRKRFEVYVCTMAERDYALEMWRLLDPEGNLINTNDLLARIVCVKSGFKKSLFNVFLDGTCHPKMALVIDDRLKVWDEKDQPRVHVVPAFAPYYSPQAEAAATPVLCVARNVACGVRGGFFRDFDDSLLPRIAEISYENDAEDIPSPPDVSHYLVSEDDTSGLNGNKDPLSFDGMADTEVERRLKEAISASSAVLPAANIDPRIAAPVQFPMASASSVSVPVPVQVVQQAIQPSAMAFPSIPFQQPQQPTSIAKHLVPSEPSLQSSPAREEGEVPESELDPDTRRRLLILQHGQDTRDPAPSEPSFPQRPPVQAPPSHVQSRNGWFPVEEEMDPAQIRRAVSKEYPLDSEMIHMEKHRPRHPSFFSKIDNSTQSDRMLHENRRPPKESLRRDEQLRSNNNLPDSHPFYGEDASWNQSSSRNSDLDFLPERSVSATETSADVLHGIAIKCGAKVEYKPSLVSSTDLRFSVEAWLSNQKIGEGIGKSRREALHKAAEASIQNLADGYMRANGDPGPSHRDATPFTNENISMGNANALNNQPFARDETALPVSSRPTDPRLEGSMRHTGSITALRELCASEGLEMAFQSQRQLPSDMVHRDELHAQVEIDGRVVGEGVGSTWDEARMQAAERALSSVRSMLGQPLHKRQGSPRSFGGMSNKRLKPDFQRSLQRMPSSGRYS
Consider B2, for which, in assay [2], the binding entry is given as “binds”.

B3: FRY2-cYFP (protein, UniProt Q5YDB6 1-967)
chain: MYSNNRVEVFHGDGRLGELEIYPSRELNQQQDDVMKQRKKKQREVMELAKMGIRISHFSQSGERCPPLAILTTISSCGLCFKLEASPSPAQESLSLFYSSCLRDNKTAVMLLGGEELHLVAMYSENIKNDRPCFWAFSVAPGIYDSCLVMLNLRCLGIVFDLDETLVVANTMRSFEDKIDGFQRRINNEMDPQRLAVIVAEMKRYQDDKNLLKQYIESDQVVENGEVIKVQSEIVPALSDNHQPLVRPLIRLQEKNIILTRINPMIRDTSVLVRMRPSWEELRSYLTAKGRKRFEVYVCTMAERDYALEMWRLLDPEGNLINTNDLLARIVCVKSGFKKSLFNVFLDGTCHPKMALVIDDRLKVWDEKDQPRVHVVPAFAPYYSPQAEAAATPVLCVARNVACGVRGGFFRDFDDSLLPRIAEISYENDAEDIPSPPDVSHYLVSEDDTSGLNGNKDPLSFDGMADTEVERRLKEAISASSAVLPAANIDPRIAAPVQFPMASASSVSVPVPVQVVQQAIQPSAMAFPSIPFQQPQQPTSIAKHLVPSEPSLQSSPAREEGEVPESELDPDTRRRLLILQHGQDTRDPAPSEPSFPQRPPVQAPPSHVQSRNGWFPVEEEMDPAQIRRAVSKEYPLDSEMIHMEKHRPRHPSFFSKIDNSTQSDRMLHENRRPPKESLRRDEQLRSNNNLPDSHPFYGEDASWNQSSSRNSDLDFLPERSVSATETSADVLHGIAIKCGAKVEYKPSLVSSTDLRFSVEAWLSNQKIGEGIGKSRREALHKAAEASIQNLADGYMRANGDPGPSHRDATPFTNENISMGNANALNNQPFARDETALPVSSRPTDPRLEGSMRHTGSITALRELCASEGLEMAFQSQRQLPSDMVHRDELHAQVEIDGRVVGEGVGSTWDEARMQAAERALSSVRSMLGQPLHKRQGSPRSFGGMSNKRLKPDFQRSLQRMPSSGRYS
As for B3, the binding entry in assay [3] is recorded as “binds”.
